Data as given in PubChem BioAssay AID504793 (Drosophila RNAi Screening Center, 2011)
The deposit covers about 23,000 reagents; this is an unselected part of those that have a named target and a result. In the full data, 62 (0.27%) are marked active. 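Calls come from follow-up tests whose scores are not deposited, so confirmed genes may have low counts here; counts are not normalised per plate.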 The raw values are shown without normalisation.

- Aim: 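Genes required for cells to halt at G2/M after double-strand DNA breaks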 (primary screen)
- Cell system: Drosophila S2R+ cells
- Reagent: long dsRNA against Drosophila genes, about 0.25 µg dsRNA per well
- Timing: 4 days of dsRNA, then 4 hours of drug before read-out
- Treatment: doxorubicin 0.5 µM for 4 hours to cause double-strand breaks, in cells also given a low, harmless dose of dsRNA against nbs to sensitise the assay
- Measurement: 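Mitotic index as the number of phospho-histone H3-positive cells in each well following doxorubicin, given as raw counts without normalisation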
- Scale: mitotic cells: higher = more cells in mitosis, weaker G2 arrest
- Hit rule: 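Genes are called active only when high mitotic counts were reproduced with independent dsRNAs and mitosis was checked for delay without damage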
- Calls: active = confirmed in follow-up tests; inactive = not confirmed

Against CG31759 [DRSC01230], the values are mitotic cells, replicate 1 = 10; inactive. Silencing of Caf1-180 [DRSC17807] resulted in: mitotic cells, replicate 1 = 6; inactive. With knock-down of Caf1-180 [DRSC24150], the screen gave mitotic cells, replicate 1 = 5; inactive. Ace [DRSC14100] gave mitotic cells, replicate 1 = 5; inactive. Ace [DRSC25364] showed mitotic cells, replicate 1 = 4; inactive. Silencing of TTLL4B [DRSC00636] came out at: mitotic cells, replicate 1 = 7; inactive.

After knock-down of TTLL4B [DRSC28854] the results were mitotic cells, replicate 1 = 2; inactive. With knock-down of CG32712 [DRSC17820], the record shows mitotic cells, replicate 1 = 8; inactive. kek2 [DRSC03552] showed mitotic cells, replicate 1 = 8; inactive. With knock-down of kek2 [DRSC26189] the results were mitotic cells, replicate 1 = 3; inactive. Mks1 [DRSC19697] scored mitotic cells, replicate 1 = 9; inactive. Against ova [DRSC02879] the deposit lists mitotic cells, replicate 1 = 7; inactive.

CG3505 [DRSC15489] gave mitotic cells, replicate 1 = 8; inactive. Depletion of yellow-f [DRSC15348] resulted in: mitotic cells, replicate 1 = 4; inactive. Depletion of yellow-f [DRSC27151] gave: mitotic cells, replicate 1 = 6; inactive.

In a second layout: results already given
target gene	amplicon	mitotic cells, replicate 1	outcome
CG3505	DRSC15489	8	inactive
yellow-f	DRSC15348	4	inactive

The listing continues.
After knock-down of Octbeta2R [DRSC15350] the results were mitotic cells, replicate 1 = 2; inactive. Octbeta2R [DRSC16165] showed mitotic cells, replicate 1 = 5; inactive. Octbeta2R [DRSC25380] gave mitotic cells, replicate 1 = 14; inactive. With knock-down of Octbeta2R [DRSC26383], the record shows mitotic cells, replicate 1 = 7; inactive. Silencing of Mekk1 [DRSC16302] came out at: mitotic cells, replicate 1 = 8; inactive. For Mekk1 [DRSC16303] the deposit lists mitotic cells, replicate 1 = 7; inactive.

Against CG10839 [DRSC01965] the deposit lists mitotic cells, replicate 1 = 7; inactive. With knock-down of wun2 [DRSC07566], the record shows mitotic cells, replicate 1 = 4; inactive. CG3520 [DRSC04383] scored mitotic cells, replicate 1 = 3; inactive. Silencing of Bre1 [DRSC09742] came out at: mitotic cells, replicate 1 = 3; inactive. CG1824 [DRSC19796] gave mitotic cells, replicate 1 = 6; inactive. Against Faf2 [DRSC03325], the values are mitotic cells, replicate 1 = 2; inactive.

Cdc23 [DRSC02708] scored mitotic cells, replicate 1 = 316; inactive. For mrva [DRSC11009], the entry reads mitotic cells, replicate 1 = 13; inactive. After knock-down of mrva [DRSC21842], the record shows mitotic cells, replicate 1 = 12; inactive. After knock-down of mrva [DRSC25508], the record shows mitotic cells, replicate 1 = 9; inactive. Against CG5882 [DRSC15907], the entry reads mitotic cells, replicate 1 = 22; inactive. After knock-down of CG31845 (retired record) [DRSC23074], the record shows mitotic cells, replicate 1 = 12; inactive.

After knock-down of CR31824 [DRSC01517], the screen gave mitotic cells, replicate 1 = 4; inactive. Knock-down of CR31824 [DRSC29841] resulted in: mitotic cells, replicate 1 = 10; inactive. CG13589 [DRSC04225] scored mitotic cells, replicate 1 = 5; inactive. CG13589 [DRSC26885] showed mitotic cells, replicate 1 = 3; inactive. Swip-1 [DRSC02083] showed mitotic cells, replicate 1 = 7; inactive. Swip-1 [DRSC02084] scored mitotic cells, replicate 1 = 4; inactive.

pll [DRSC17026] scored mitotic cells, replicate 1 = 8; inactive. For pll [DRSC28551] the deposit lists mitotic cells, replicate 1 = 9; inactive. Against CG5665 [DRSC11783], the values are mitotic cells, replicate 1 = 6; inactive. Silencing of CG10903 [DRSC14281] came out at: mitotic cells, replicate 1 = 1; inactive.
